Results as given in article PMC6933522.
No constants are given. Whether binding was seen depends on the method and setting. Binding seen in cells or lysates may run through a third protein. Some binding calls cover weakened binding; strength is not graded here.

By UniProt entry, the sequences of proteins in these tests, tags left out.
UniProt Q9Y696: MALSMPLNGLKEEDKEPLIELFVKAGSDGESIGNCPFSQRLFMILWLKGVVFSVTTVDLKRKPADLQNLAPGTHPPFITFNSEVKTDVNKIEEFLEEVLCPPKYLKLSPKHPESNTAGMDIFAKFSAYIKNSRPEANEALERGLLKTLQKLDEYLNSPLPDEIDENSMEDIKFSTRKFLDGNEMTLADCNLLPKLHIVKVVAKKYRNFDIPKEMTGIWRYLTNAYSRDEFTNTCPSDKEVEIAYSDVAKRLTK
UniProt Q8WUM4: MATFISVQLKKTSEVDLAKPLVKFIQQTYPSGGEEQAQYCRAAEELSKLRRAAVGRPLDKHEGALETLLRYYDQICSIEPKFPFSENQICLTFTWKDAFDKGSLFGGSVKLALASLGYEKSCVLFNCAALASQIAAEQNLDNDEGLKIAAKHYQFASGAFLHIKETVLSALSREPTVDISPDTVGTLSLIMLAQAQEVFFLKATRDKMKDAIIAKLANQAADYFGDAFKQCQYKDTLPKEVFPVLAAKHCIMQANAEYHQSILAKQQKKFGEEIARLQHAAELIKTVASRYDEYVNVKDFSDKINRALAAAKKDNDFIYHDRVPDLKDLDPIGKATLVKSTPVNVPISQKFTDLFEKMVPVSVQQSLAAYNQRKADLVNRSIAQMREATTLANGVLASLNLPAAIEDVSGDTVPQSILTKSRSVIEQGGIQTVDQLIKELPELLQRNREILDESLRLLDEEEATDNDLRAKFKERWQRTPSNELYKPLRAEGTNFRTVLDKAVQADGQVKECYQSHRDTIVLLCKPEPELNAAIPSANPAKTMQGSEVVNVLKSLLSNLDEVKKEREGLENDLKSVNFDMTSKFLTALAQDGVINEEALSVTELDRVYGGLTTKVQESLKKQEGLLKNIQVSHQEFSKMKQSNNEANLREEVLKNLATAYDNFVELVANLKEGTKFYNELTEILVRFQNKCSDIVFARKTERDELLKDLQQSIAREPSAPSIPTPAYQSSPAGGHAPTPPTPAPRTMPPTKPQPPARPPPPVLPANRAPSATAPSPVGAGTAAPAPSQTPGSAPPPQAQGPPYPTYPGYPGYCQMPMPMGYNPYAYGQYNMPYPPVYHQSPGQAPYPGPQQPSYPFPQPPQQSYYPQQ

What was measured:
CLIC4-GFP (human) = CLIC4-GFP (human) (UniProt Q9Y696); experiment: co-IP; sensitive GFP-trap pull-down under low detergent (0.01% Triton X-100 in PBS); lysates of stable GFP or CLIC4-GFP HeLa S3 cells arrested at monopolar cytokinesis; GFP-Trap_A beads 3 h at 4 C; Western blot
[1] = target: CLIC4 (endogenous) (human (endogenous in HeLa S3)) (UniProt Q9Y696); experiment: proximity ligation; Duolink in situ PLA on fixed HeLa S3 cells arrested at cytokinesis; pairs of primary antibodies to endogenous CLIC4 and anillin, ALIX or ezrin; single primary antibody as control

- binding (CLIC4-GFP (human)): binds
- binding [1]: binds
Substance: ALIX (from UniProt Q8WUM4 1-868)
